According to PubChem BioAssay AID493014 (National Center for Advancing Translational Sciences (NCATS), 2011):
This is one part of the list. The main result of the screen is listed elsewhere. These columns were measured beside it and carry no call. Compounds called inactive in the main read-out are mostly missing here. Words in brackets tell the shape of the fitted curve; partial curves, single points and poor fits give uncertain potencies.

Test: qHTS Assay to Find Inhibitors of Chronic Active B-Cell Receptor Signaling
Details: ABC-DLBCL IkBa-CBG/CBR reporter, luminescence ratio (green luciferase fused to IkBa over red control in TMD8 lymphoma cells), 4 h
Method in brief: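 Doxycycline induced both beetle luciferases in TMD8 lymphoma cells; IKK-driven degradation limits the IkappaBalpha-fused green signal, while red luminescence normalises for cell number and nonspecific effects. Compounds tested up to 46 uM, 4 hrs.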

[1] = measured here: CBR red luminescence, cell number
[2] = measured here: IkBa-CBG green luminescence

SMILES	AC50 [1]	AC50 [2]
CC(C)c1ccc(CN(C)C(=O)c2ccc(S(=O)(=O)NCc3ccco3)cc2)cc1	3.66 µM [rising, partial curve, poor fit]	
Cc1cccc(NC(=O)C(=O)NCC2CCCN2S(=O)(=O)c2cccs2)c1C (centres undefined)	8.2 µM [falling, partial curve, poor fit]	
O=S(=O)(Nc1cccc2ccccc12)c1cccs1	11.2 µM [rising, partial curve]	
O=C(Nc1cccc(F)c1)c1ccc(CSc2ccccc2)o1	18.4 µM [falling, single point]	
COc1ccc2c(c1)C(=O)[C@H](O)[C@@H](c1ccc(OC)c(Br)c1)O2	23.1 µM [rising, single point]	20.6 µM [falling, single point]
Cn1cccc1/C=N/NC(=O)c1cc2ccccc2cc1O	1.58 µM [falling, full curve]	
COc1ccc(CC(=O)Nc2ccc(-c3ccc4nnc(C)n4n3)cc2)cc1OC	3.98 µM [rising, full curve, poor fit]	12.6 µM [falling, partial curve, poor fit]
Cc1ccsc1C(=O)OCc1cc(=O)n2ccsc2n1	1.84 µM [falling, full curve]	
CC(NC(=S)Nc1ccccc1Cl)C(c1ccccc1)N1CCOCC1 (centres undefined)	16.4 µM [falling, partial curve, poor fit]	
Cn1c(-c2ccc(F)c(F)c2)cc2onc(-c3ccccc3)c2c1=O	0.184 µM [rising, full curve]	
Cc1nc(N=C(N)N)nc2ccccc12	15.8 µM [falling, partial curve, poor fit]	
CSCCCNC(=S)Nc1ccc(N2CCOCC2)cc1	10 µM [rising, partial curve, poor fit]	
CCCCCCNC(=O)CC(c1ccccc1)c1cc(Br)ccc1O (centres undefined)	9.2 µM [falling, partial curve]	18.4 µM [rising, partial curve, poor fit]
COC(=O)C1=C(N)c2c(F)cccc2C1(C#N)c1ccc(F)cc1 (centres undefined)	0.326 µM [falling, partial curve, poor fit]	
CC(C(=O)NC1(C#N)CCCCC1)N(C)CC(=O)Nc1ccc(Cl)c(Cl)c1 (centres undefined)	0.184 µM [falling, full curve, poor fit]	
CCCn1cnc2cc(NCc3cccs3)ccc21	7.94 µM [falling, partial curve]	
O=[N+]([O-])c1cc(S(=O)(=O)NCCc2ccccn2)ccc1Cl	16.4 µM [falling, single point]	
Cc1ccc(C2=NNC(C(O)C(O)C(O)C(O)CO)S2)cc1 (centres undefined)	6.51 µM [rising, full curve]	
Cc1cc(C)c2oc(C(=O)N3CCN(Cc4ccccc4)CC3)cc(=O)c2c1	35.5 µM [falling, single point]	
N#Cc1cc(C(=O)c2ccccc2O)cn(-c2nccs2)c1=O	20.6 µM [falling, partial curve]	

SMILES	AC50 [1]	AC50 [2]
COc1ccc(CNC(=O)N[C@H](C(=O)O)C(C)C)cc1OC	1.12 µM [rising, full curve, poor fit]	
O/C(=C\c1nc2ccccc2nc1/C=C(\O)c1ccccc1)c1ccccc1	3.16 µM [falling, partial curve]	
O=C(Nc1ccc(N2C(=O)C3C4C=CC(C4)C3C2=O)cc1)Nc1nnc(C(F)(F)F)s1 (centres undefined)	18.4 µM [rising, single point]	
CN(C)c1ccc(-n2cccc2/C=C/[N+](=O)[O-])cc1	5.62 µM [falling, full curve]	35.5 µM [rising, partial curve, poor fit]
O=C(/C=C/c1ccccc1)N1CCOCC1	1.41 µM [rising, full curve]	
Cc1nn(C)c(C(=O)NNC(=S)NCc2ccco2)c1Cl	29.1 µM [falling, single point]	23.1 µM [rising, partial curve, poor fit]
Nc1ncc(N=Nc2cc(C(=O)O)ccc2Cl)s1	20 µM [falling, single point]	
CCc1ccc(N2C(=O)C(Cl)=C(N3CCOCC3)C2=O)cc1	8.2 µM [rising, partial curve, poor fit]	
O=C(c1ccc2c(c1)OCCO2)C1CCN(C(=O)c2ccc(F)cc2)CC1	6.51 µM [rising, single point]	
O=C(CCCN1C(=O)/C(=C\c2cccs2)SC1=S)Nc1cccnc1	6.51 µM [falling, partial curve]	
O=C(CCc1ccccc1)NC(=S)Nc1cccc(C(=O)O)c1	17.8 µM [falling, partial curve, poor fit]	
CCOC(=O)C1/C(=N\O)CC(C)(O)C(C(=O)OCC)C1c1ccc(N(C)C)cc1 (centres undefined)	2.06 µM [rising, partial curve, poor fit]	
COC(=O)c1c(NC(=O)Cc2ccccc2)sc(C)c1C	11.6 µM [falling, partial curve, poor fit]	
Cc1ccc(C(C(=O)NCC2CCCO2)N(Cc2ccccc2)C(=O)c2ccc(-c3ccccc3)[nH]2)o1 (centres undefined)		23.1 µM [rising, partial curve, poor fit]
NCCCC[C@@H](C(=O)N1CCNCC1)n1cc(CCC(=O)O)nn1	0.562 µM [falling, full curve, poor fit]	
O=C(Nc1ccccc1F)c1ccc2nc(N3C(=O)CCC3=O)sc2c1	0.562 µM [falling, full curve, poor fit]	
CC(=O)Nc1ccc(NC(=O)C(C)OC(=O)c2cccc(S(=O)(=O)N3CCCCCC3)c2)cc1 (centres undefined)	0.731 µM [rising, full curve, poor fit]	
COc1cc(NC(=O)Cn2cnc3c(SC)nc(N)nc32)cc(OC)c1OC	1.03 µM [falling, single point]	
NNc1ccc(Cc2ccc(Cl)cc2Cl)nn1	35.5 µM [rising, single point]	

2 of these compounds in another layout.

| SMILES | AC50 [1] | AC50 [2] |
| --- | --- | --- |
| COC(=O)c1c(NC(=O)Cc2ccccc2)sc(C)c1C | 11.6 µM [falling, partial curve, poor fit] |  |
| Cc1ccc(C(C(=O)NCC2CCCO2)N(Cc2ccccc2)C(=O)c2ccc(-c3ccccc3)[nH]2)o1 (centres undefined) |  | 23.1 µM [rising, partial curve, poor fit] |
